Results are given in words; binding and its absence hold for the method and conditions named. Some entries that bind do so weakly or less than the wild type.

Chains of the proteins cited; added tags and fusions are not shown. Residues count along the entry.
UniProt Q01973, residues 30-937: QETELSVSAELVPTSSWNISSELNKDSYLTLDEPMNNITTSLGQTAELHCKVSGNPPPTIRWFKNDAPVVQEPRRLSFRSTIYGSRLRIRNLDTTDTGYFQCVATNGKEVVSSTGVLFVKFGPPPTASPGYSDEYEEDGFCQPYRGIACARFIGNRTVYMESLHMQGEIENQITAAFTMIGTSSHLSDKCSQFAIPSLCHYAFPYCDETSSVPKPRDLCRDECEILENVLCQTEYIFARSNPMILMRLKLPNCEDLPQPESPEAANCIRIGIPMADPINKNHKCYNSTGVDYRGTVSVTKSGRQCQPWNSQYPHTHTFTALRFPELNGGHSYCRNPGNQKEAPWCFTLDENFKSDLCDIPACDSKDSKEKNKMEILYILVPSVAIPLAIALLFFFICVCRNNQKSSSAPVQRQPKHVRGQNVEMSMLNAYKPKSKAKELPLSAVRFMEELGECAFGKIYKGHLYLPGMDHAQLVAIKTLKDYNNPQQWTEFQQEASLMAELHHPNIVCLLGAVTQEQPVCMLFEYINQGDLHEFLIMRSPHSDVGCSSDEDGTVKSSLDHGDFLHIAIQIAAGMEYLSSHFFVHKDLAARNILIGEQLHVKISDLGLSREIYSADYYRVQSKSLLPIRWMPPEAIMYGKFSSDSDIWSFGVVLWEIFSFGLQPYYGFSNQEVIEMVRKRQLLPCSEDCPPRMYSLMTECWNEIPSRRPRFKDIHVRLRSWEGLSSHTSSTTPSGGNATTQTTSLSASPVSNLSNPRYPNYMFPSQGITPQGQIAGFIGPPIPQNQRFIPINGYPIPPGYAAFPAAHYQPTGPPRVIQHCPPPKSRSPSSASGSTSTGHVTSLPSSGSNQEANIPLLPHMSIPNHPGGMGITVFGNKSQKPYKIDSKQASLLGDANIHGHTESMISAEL

For this assay, the target named is Tyrosine-protein kinase transmembrane receptor ROR1 (human) (UniProt Q01973). Kind of assay: flow cytometry, saturation binding of the mAb with Qifikit on human cell lines.

B1: anti-human ROR1 mAb clone 2A2 (antibody, V domains shown)
VH: QVQLQQSGAELVRPGASVTLSCKASGYTFSDYEMHWVIQTPVHGLEWIGAIDPETGGTAYNQKFKGKAILTADKSSSTAYMELRSLTSEDSAVYYCTGYYDYDSFTYWGQGTLVTVSA
VL: DIVMTQSQKIMSTTVGDRVSITCKASQNVDAAVAWYQQKPGQSPKLLIYSASNRYTGVPDRFTGSGSGTDFTLTISNMQSEDLADYFCQQYDIYPYTFGGGTKLEIK
Regarding B1, the binding result was “binds”.

Values taken from patent US20170283497A1 (CELLECTIS, published 2017).
